Assay [1] addresses Flag-tagged KLF4 (Krüppel-like factor 4), full length (human) (UniProt O43474). The assay is described as follows: co-IP; cytosolic and nuclear fractions of HEK293 cells co-transfected with Myc-USP11 and Flag-KLF4; IP with anti-Flag beads, blot with anti-Myc.
For assay [2] the target is unchanged. The experiment in a line: co-IP; HEK293 cells co-transfected with Flag-KLF4 and Myc-USP11 (in Figure 2B also HA-Ub); Nonidet P-40 lysate; IP with anti-Flag beads, blot with anti-Myc.
For assay [3], the target named is Flag-tagged KLF4, full length, expressed in HepG2 cells (human) (UniProt O43474). The experiment in a line: co-IP; cytosolic and nuclear fractions of HepG2 cells co-transfected with Myc-USP11 and Flag-KLF4; IP with anti-Flag beads, blot with anti-Myc.

By UniProt entry, the sequences of proteins in these tests, tags left out.
UniProt O43474: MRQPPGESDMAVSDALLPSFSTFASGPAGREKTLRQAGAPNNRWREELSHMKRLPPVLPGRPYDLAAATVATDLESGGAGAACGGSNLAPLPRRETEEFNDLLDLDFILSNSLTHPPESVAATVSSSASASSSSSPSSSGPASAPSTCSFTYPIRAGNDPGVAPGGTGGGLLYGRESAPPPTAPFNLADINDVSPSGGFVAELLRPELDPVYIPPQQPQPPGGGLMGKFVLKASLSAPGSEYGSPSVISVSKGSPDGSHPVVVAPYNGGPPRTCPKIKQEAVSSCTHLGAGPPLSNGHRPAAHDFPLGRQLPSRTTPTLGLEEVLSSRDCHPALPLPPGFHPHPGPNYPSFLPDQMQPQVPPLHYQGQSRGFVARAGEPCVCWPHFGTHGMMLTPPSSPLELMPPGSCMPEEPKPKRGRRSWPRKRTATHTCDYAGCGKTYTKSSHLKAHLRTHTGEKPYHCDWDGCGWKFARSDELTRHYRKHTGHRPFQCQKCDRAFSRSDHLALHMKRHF
UniProt P51784: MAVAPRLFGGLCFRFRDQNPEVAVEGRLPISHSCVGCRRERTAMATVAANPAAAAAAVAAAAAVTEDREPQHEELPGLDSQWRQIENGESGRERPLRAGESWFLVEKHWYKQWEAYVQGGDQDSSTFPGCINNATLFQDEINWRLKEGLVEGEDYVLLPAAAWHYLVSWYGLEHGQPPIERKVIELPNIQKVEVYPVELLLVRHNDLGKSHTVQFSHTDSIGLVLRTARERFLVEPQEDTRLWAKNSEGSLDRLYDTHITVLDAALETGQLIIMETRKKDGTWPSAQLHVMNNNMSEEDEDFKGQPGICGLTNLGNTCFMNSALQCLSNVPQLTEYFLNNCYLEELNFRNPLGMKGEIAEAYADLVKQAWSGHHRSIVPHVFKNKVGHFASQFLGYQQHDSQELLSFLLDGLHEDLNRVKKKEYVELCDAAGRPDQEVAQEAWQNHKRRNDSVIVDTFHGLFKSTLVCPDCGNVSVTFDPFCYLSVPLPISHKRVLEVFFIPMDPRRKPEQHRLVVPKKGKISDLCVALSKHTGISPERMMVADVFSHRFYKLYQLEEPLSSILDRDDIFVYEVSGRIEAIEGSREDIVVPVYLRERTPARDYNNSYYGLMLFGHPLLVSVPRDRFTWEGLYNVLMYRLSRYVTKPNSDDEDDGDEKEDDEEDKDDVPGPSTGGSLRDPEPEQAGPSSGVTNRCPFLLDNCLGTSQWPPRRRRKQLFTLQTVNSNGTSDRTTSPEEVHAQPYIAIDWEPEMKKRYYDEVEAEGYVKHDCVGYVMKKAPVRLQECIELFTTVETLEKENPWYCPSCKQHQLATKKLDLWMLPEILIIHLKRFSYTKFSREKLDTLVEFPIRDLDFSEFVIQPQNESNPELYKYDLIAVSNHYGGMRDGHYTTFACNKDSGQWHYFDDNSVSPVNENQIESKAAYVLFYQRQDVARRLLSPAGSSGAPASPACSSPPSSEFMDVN

Among the data in article PMC8278108 are binding values, retold here.

Results are given in words; binding and its absence hold for the method and conditions named. Binding seen in cells or lysates may run through a third protein. Some binding calls cover weakened binding; strength is not graded here.

Regarding “Myc-tagged USP11 (ubiquitin-specific peptidase 11), full length, wild type (from UniProt P51784 1-963) (enzyme)”, the binding entry in assay [1] and in assay [2] was “binds” throughout.

Regarding “Myc-tagged USP11, full length, expressed in HepG2 cells (from UniProt P51784 1-963) (enzyme)”, in assay [3], the binding result was “binds”.
